{"source": "the supplement of paper PMC5355238", "note": "Where a name gives a salt, the structure may show the parent alone. The list shows a part of the results. Most entries show no effect beyond the scatter of the controls.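 Reh, a human leukemia cell line, is read out by flow cytometry as the median γH2AX antibody signal in S-phase cells; the score counts standard deviations from the median difference of each paired plate set. Scores above 2.5 were candidate hits; scores below -2 mark compounds lowering MK1775-induced damage.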"}
{"test_system": "Reh", "test": "Z' of S-phase gammaH2AX difference (drug + MK1775 minus drug alone) (Z-score); higher = stronger synergistic S-phase DNA damage with MK1775", "conditions": "MK1775 concentration 400 nM; first compound 10 µM; 4 h"}
{"smiles": "c1ccc2c(-c3cnn4cc(-c5ccc(N6CCNCC6)cc5)cnc34)ccnc2c1", "note": "+ C=CCn1c(=O)c2cnc(Nc3ccc(N4CCN(C)CC4)cc3)nc2n1-c1cccc(C(C)(C)O)n1 [MK1775]", "Z' of S-phase gammaH2AX difference (Z-score)": "inactive: -0.846"}
{"smiles": "O=C(O)CCC/C=C\\C[C@@H]1[C@@H](/C=C/[C@H](O)C2Cc3ccccc3C2)[C@@H](F)C[C@@H]1O", "note": "+ C=CCn1c(=O)c2cnc(Nc3ccc(N4CCN(C)CC4)cc3)nc2n1-c1cccc(C(C)(C)O)n1 [MK1775]", "Z' of S-phase gammaH2AX difference (Z-score)": "inactive: -0.13"}
{"smiles": "Cc1[nH]c(/C=C2\\C(=O)Nc3ccc(S(=O)(=O)Cc4c(Cl)cccc4Cl)cc32)c(C)c1C(=O)N1CCC[C@@H]1CN1CCCC1", "note": "+ C=CCn1c(=O)c2cnc(Nc3ccc(N4CCN(C)CC4)cc3)nc2n1-c1cccc(C(C)(C)O)n1 [MK1775]", "Z' of S-phase gammaH2AX difference (Z-score)": "inactive: -0.784"}
{"smiles": "Nc1nc(Nc2ccc(S(N)(=O)=O)cc2)nn1C(=O)c1c(F)cccc1F", "note": "+ C=CCn1c(=O)c2cnc(Nc3ccc(N4CCN(C)CC4)cc3)nc2n1-c1cccc(C(C)(C)O)n1 [MK1775]", "Z' of S-phase gammaH2AX difference (Z-score)": "inactive: -0.885"}
{"smiles": "CC(C)c1onc(-c2c(Cl)cccc2Cl)c1COc1ccc(/C=C/c2cccc(C(=O)O)c2)c(Cl)c1", "note": "+ C=CCn1c(=O)c2cnc(Nc3ccc(N4CCN(C)CC4)cc3)nc2n1-c1cccc(C(C)(C)O)n1 [MK1775]", "Z' of S-phase gammaH2AX difference (Z-score)": "inactive: 0.134"}
{"smiles": "CCCCC#Cc1nc(N)c2ncn([C@@H]3O[C@H](C(=O)NCC)[C@@H](O)[C@H]3O)c2n1", "note": "+ C=CCn1c(=O)c2cnc(Nc3ccc(N4CCN(C)CC4)cc3)nc2n1-c1cccc(C(C)(C)O)n1 [MK1775]", "Z' of S-phase gammaH2AX difference (Z-score)": "inactive: -0.532"}
{"smiles": "CC(CCc1ccc(O)cc1)NCCc1ccc(O)c(O)c1", "note": "(configuration not stated) [Dobutamine hydrochloride] + C=CCn1c(=O)c2cnc(Nc3ccc(N4CCN(C)CC4)cc3)nc2n1-c1cccc(C(C)(C)O)n1 [MK1775]", "Z' of S-phase gammaH2AX difference (Z-score)": "inactive: -1.05"}
{"smiles": "N[C@@H](CCC(=O)N[C@@H](CSN=O)C(=O)NCC(=O)O)C(=O)O", "note": "[S-Nitrosoglutathione] + C=CCn1c(=O)c2cnc(Nc3ccc(N4CCN(C)CC4)cc3)nc2n1-c1cccc(C(C)(C)O)n1 [MK1775]", "Z' of S-phase gammaH2AX difference (Z-score)": "inactive: -0.141"}
{"smiles": "O=C1C(Cl)=C(NCCN2CCOCC2)C(=O)c2ncccc21", "note": "+ C=CCn1c(=O)c2cnc(Nc3ccc(N4CCN(C)CC4)cc3)nc2n1-c1cccc(C(C)(C)O)n1 [MK1775]", "Z' of S-phase gammaH2AX difference (Z-score)": "inactive: 1.37"}
{"smiles": "O=c1cc(O)cc(/C=C/c2ccc(O)c(O)c2)o1", "note": "[Hispidin] + C=CCn1c(=O)c2cnc(Nc3ccc(N4CCN(C)CC4)cc3)nc2n1-c1cccc(C(C)(C)O)n1 [MK1775]", "Z' of S-phase gammaH2AX difference (Z-score)": "inactive: -0.59"}
{"smiles": "COc1cc2ncnc(Nc3ccc(Oc4ccccc4)cc3)c2cc1OC", "note": "+ C=CCn1c(=O)c2cnc(Nc3ccc(N4CCN(C)CC4)cc3)nc2n1-c1cccc(C(C)(C)O)n1 [MK1775]", "Z' of S-phase gammaH2AX difference (Z-score)": "inactive: -0.0525"}
{"smiles": "Cn1c(=O)c(F)c(Nc2ccc(I)cc2F)c2c(=O)n(C[C@@H](O)CO)cnc21", "note": "+ C=CCn1c(=O)c2cnc(Nc3ccc(N4CCN(C)CC4)cc3)nc2n1-c1cccc(C(C)(C)O)n1 [MK1775]", "Z' of S-phase gammaH2AX difference (Z-score)": "inactive: 0.169"}
{"smiles": "O=c1[nH]c(=O)n([C@H]2C[C@H](O)[C@@H](CO)O2)cc1/C=C/Br", "note": "[(E)-5-(2-Bromovinyl)-2'-deoxyuridine] + C=CCn1c(=O)c2cnc(Nc3ccc(N4CCN(C)CC4)cc3)nc2n1-c1cccc(C(C)(C)O)n1 [MK1775]", "Z' of S-phase gammaH2AX difference (Z-score)": "inactive: 0.251"}
{"smiles": "CC(C)N(CCC(=O)c1ccc2ccccc2c1)Cc1ccccc1", "note": "+ C=CCn1c(=O)c2cnc(Nc3ccc(N4CCN(C)CC4)cc3)nc2n1-c1cccc(C(C)(C)O)n1 [MK1775]", "Z' of S-phase gammaH2AX difference (Z-score)": "inactive: -0.369"}
{"smiles": "O=C(Nc1cccc(Cl)c1)Nc1ncc(CCNc2ncnc3ccsc23)s1", "note": "+ C=CCn1c(=O)c2cnc(Nc3ccc(N4CCN(C)CC4)cc3)nc2n1-c1cccc(C(C)(C)O)n1 [MK1775]", "Z' of S-phase gammaH2AX difference (Z-score)": "inactive: -0.557"}
{"smiles": "COc1ccc(CCCOC(Cn2ccnc2)c2ccc(OC)cc2)cc1", "note": "(configuration not stated) + C=CCn1c(=O)c2cnc(Nc3ccc(N4CCN(C)CC4)cc3)nc2n1-c1cccc(C(C)(C)O)n1 [MK1775]", "Z' of S-phase gammaH2AX difference (Z-score)": "inactive: -0.259"}
{"smiles": "CCCOC(=O)c1c(-c2ccccc2)nc(CC)c(C(=O)SCC)c1CCC", "note": "+ C=CCn1c(=O)c2cnc(Nc3ccc(N4CCN(C)CC4)cc3)nc2n1-c1cccc(C(C)(C)O)n1 [MK1775]", "Z' of S-phase gammaH2AX difference (Z-score)": "inactive: 0.509"}
{"smiles": "O=C(NCC1CCCCN1)c1cc(OCC(F)(F)F)ccc1OCC(F)(F)F", "note": "(configuration not stated) [Flecainide acetate] + C=CCn1c(=O)c2cnc(Nc3ccc(N4CCN(C)CC4)cc3)nc2n1-c1cccc(C(C)(C)O)n1 [MK1775]", "Z' of S-phase gammaH2AX difference (Z-score)": "inactive: -0.148"}
{"smiles": "COc1cc(N2CCC(N3CCN(C)CC3)CC2)ccc1Nc1ncc(Cl)c(Nc2ccccc2S(=O)(=O)C(C)C)n1", "note": "+ C=CCn1c(=O)c2cnc(Nc3ccc(N4CCN(C)CC4)cc3)nc2n1-c1cccc(C(C)(C)O)n1 [MK1775]", "Z' of S-phase gammaH2AX difference (Z-score)": "inactive: -0.997"}
{"smiles": "Cc1nc2c(OCc3ccccc3)cccn2c1CC#N", "note": "+ C=CCn1c(=O)c2cnc(Nc3ccc(N4CCN(C)CC4)cc3)nc2n1-c1cccc(C(C)(C)O)n1 [MK1775]", "Z' of S-phase gammaH2AX difference (Z-score)": "inactive: 1.09"}
{"smiles": "CCOC(=O)C1=C(C)NC(C)=C(C(=O)OC)C1c1cccc([N+](=O)[O-])c1", "note": "(configuration not stated) [Nitrendipine] + C=CCn1c(=O)c2cnc(Nc3ccc(N4CCN(C)CC4)cc3)nc2n1-c1cccc(C(C)(C)O)n1 [MK1775]", "Z' of S-phase gammaH2AX difference (Z-score)": "inactive: 0.936"}
{"smiles": "CN(C)c1nc(N)c(C(=O)NC(=N)N)nc1Cl", "note": "[5-(N,N-Dimethyl)amiloride hydrochloride] + C=CCn1c(=O)c2cnc(Nc3ccc(N4CCN(C)CC4)cc3)nc2n1-c1cccc(C(C)(C)O)n1 [MK1775]", "Z' of S-phase gammaH2AX difference (Z-score)": "inactive: 0.267"}
{"smiles": "O=C(c1ccc(OCCN2CCCCC2)cc1)c1c(-c2ccc(O)cc2)sc2cc(O)ccc12", "note": "[Evista (Raloxifene Hydrochloride)] + C=CCn1c(=O)c2cnc(Nc3ccc(N4CCN(C)CC4)cc3)nc2n1-c1cccc(C(C)(C)O)n1 [MK1775]", "Z' of S-phase gammaH2AX difference (Z-score)": "inactive: 0.0303"}
{"smiles": "O=C(c1ccc(OCCN2CCCCC2)cc1)c1c(-c2ccc(O)cc2)sc2cc(O)ccc12", "note": "[Raloxifene hydrochloride] + C=CCn1c(=O)c2cnc(Nc3ccc(N4CCN(C)CC4)cc3)nc2n1-c1cccc(C(C)(C)O)n1 [MK1775]", "Z' of S-phase gammaH2AX difference (Z-score)": "inactive: -0.534"}
{"smiles": "CC(CN1c2ccccc2Sc2ccccc21)N(C)C", "note": "(configuration not stated) [Promethazine hydrochloride] + C=CCn1c(=O)c2cnc(Nc3ccc(N4CCN(C)CC4)cc3)nc2n1-c1cccc(C(C)(C)O)n1 [MK1775]", "Z' of S-phase gammaH2AX difference (Z-score)": "inactive: -0.0922"}
{"smiles": "CNC(=O)c1ccccc1Sc1ccc2c(/C=C/c3ccccn3)n[nH]c2c1", "note": "[Axitinib] + C=CCn1c(=O)c2cnc(Nc3ccc(N4CCN(C)CC4)cc3)nc2n1-c1cccc(C(C)(C)O)n1 [MK1775]", "Z' of S-phase gammaH2AX difference (Z-score)": "inactive: 0.638"}
{"smiles": "COc1ccccc1CNCCCCCCNCCCCCCCCNCCCCCCNCc1ccccc1OC", "note": "[Methoctramine tetrahydrochloride] + C=CCn1c(=O)c2cnc(Nc3ccc(N4CCN(C)CC4)cc3)nc2n1-c1cccc(C(C)(C)O)n1 [MK1775]", "Z' of S-phase gammaH2AX difference (Z-score)": "inactive: 1.01"}
{"smiles": "O=C(NC1CCNCC1)c1n[nH]cc1NC(=O)c1c(Cl)cccc1Cl", "note": "+ C=CCn1c(=O)c2cnc(Nc3ccc(N4CCN(C)CC4)cc3)nc2n1-c1cccc(C(C)(C)O)n1 [MK1775]", "Z' of S-phase gammaH2AX difference (Z-score)": "inactive: -0.999"}
{"smiles": "CC[C@H](Nc1ncnc2[nH]cnc12)c1nc2cccc(F)c2c(=O)n1-c1ccccc1", "note": "+ C=CCn1c(=O)c2cnc(Nc3ccc(N4CCN(C)CC4)cc3)nc2n1-c1cccc(C(C)(C)O)n1 [MK1775]", "Z' of S-phase gammaH2AX difference (Z-score)": "inactive: 0.0407"}
{"smiles": "Nn1nnc2ccccc21", "note": "[1-Aminobenzotriazole] + C=CCn1c(=O)c2cnc(Nc3ccc(N4CCN(C)CC4)cc3)nc2n1-c1cccc(C(C)(C)O)n1 [MK1775]", "Z' of S-phase gammaH2AX difference (Z-score)": "inactive: -0.474"}
{"smiles": "CN(C)CCCC1(c2ccc(F)cc2)OCc2cc(C#N)ccc21", "note": "(configuration not stated) [Citalopram hydrobromide] + C=CCn1c(=O)c2cnc(Nc3ccc(N4CCN(C)CC4)cc3)nc2n1-c1cccc(C(C)(C)O)n1 [MK1775]", "Z' of S-phase gammaH2AX difference (Z-score)": "inactive: 1.35"}
{"smiles": "CCCC(CCC)C(=O)O", "note": "[Valproic acid sodium salt (Sodium valproate)] + C=CCn1c(=O)c2cnc(Nc3ccc(N4CCN(C)CC4)cc3)nc2n1-c1cccc(C(C)(C)O)n1 [MK1775]", "Z' of S-phase gammaH2AX difference (Z-score)": "inactive: 0.215"}
{"smiles": "COc1ccccc1N1CCN(CCN2C(=O)CC3(CCCC3)CC2=O)CC1", "note": "[BMY 7378 dihydrochloride] + C=CCn1c(=O)c2cnc(Nc3ccc(N4CCN(C)CC4)cc3)nc2n1-c1cccc(C(C)(C)O)n1 [MK1775]", "Z' of S-phase gammaH2AX difference (Z-score)": "inactive: -0.568"}
{"smiles": "CN(C)CCC(c1ccc(Cl)cc1)c1ccccn1", "note": "(configuration not stated) [(?)-Chlorpheniramine maleate] + C=CCn1c(=O)c2cnc(Nc3ccc(N4CCN(C)CC4)cc3)nc2n1-c1cccc(C(C)(C)O)n1 [MK1775]", "Z' of S-phase gammaH2AX difference (Z-score)": "inactive: 0.585"}
{"smiles": "C[C@H](O)C(=O)C1=Nc2c(nc(N)[nH]c2=O)NC1", "note": "[Sepiapterin] + C=CCn1c(=O)c2cnc(Nc3ccc(N4CCN(C)CC4)cc3)nc2n1-c1cccc(C(C)(C)O)n1 [MK1775]", "Z' of S-phase gammaH2AX difference (Z-score)": "inactive: 0.0354"}
{"smiles": "CC(C)(C)c1cc(/C=C(\\C#N)C(N)=S)cc(C(C)(C)C)c1O", "note": "[Tyrphostin AG 879] + C=CCn1c(=O)c2cnc(Nc3ccc(N4CCN(C)CC4)cc3)nc2n1-c1cccc(C(C)(C)O)n1 [MK1775]", "Z' of S-phase gammaH2AX difference (Z-score)": "inactive: 0.226"}
{"smiles": "O=C(O)c1ccccc1Nc1cccc(OCc2ccc3ccccc3n2)c1", "note": "+ C=CCn1c(=O)c2cnc(Nc3ccc(N4CCN(C)CC4)cc3)nc2n1-c1cccc(C(C)(C)O)n1 [MK1775]", "Z' of S-phase gammaH2AX difference (Z-score)": "inactive: 0.345"}
